Measurements reported in PubChem BioAssay AID504786 (Drosophila RNAi Screening Center, 2011).
Purpose: 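Fly genes required for HIF-dependent transcription when hypoxia is mimicked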 (primary screen). Cells: Drosophila S2 cells with a stable HIF luciferase reporter. Knock-down reagent: long dsRNA against Drosophila genes, about 0.2 µg dsRNA per well of a 384-well plate. Timing: three days of knock-down, then 20 h of DFO before reading. Treatment: desferrioxamine (DFO) at 100 µM, an iron chelator that mimics hypoxia, for 20 h. Measured: 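Firefly luciferase driven by the mouse ldh-a hypoxia-response element, measured after 20 h of 100 µM DFO; z-scores per plate, higher means more signal lost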. Reading the numbers: z-score: higher = stronger loss of HIF reporter signal.
In all, the deposit lists about 21,000 reagents; below is a random part of those with a known target gene and a result. 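Primary screen; positive scores mean lost reporter signal, so the sign may be inverted from the usual convention.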 The numbers tell different reagents against one gene apart. Names joined by + are all predicted targets of the reagent. Not all columns of the deposit are shown.

z-score, replicate 1, by gene and reagent
Vha16-1 (Vacuolar H[+] ATPase 16kD subunit 1): #1 -0.3
apt (apontic): #1 1.2
mRpS16 (mitochondrial ribosomal protein S16): #1 0.5
CG9855: #1 -0.3
CG10481: #1 -0.4
CG14419: #1 -0.2
ETHR: #1 0.6
slmb (supernumerary limbs): #1 -0.5
CG31454: #1 -0.4
Osi7 (Osiris 7): #1 -0.1
SH3PX1 (SH3 and PX domain containing 1): #1 -0.3
TwdlX (TweedleX): #1 -0.4
Ufd4 (Ubiquitin fusion-degradation 4-like): #1 0.8
Ccdc85: #1 1.1
beta-Man (beta-Mannosidase): #1 -0.3; #2 -0.3
CG9951: #1 -0.3
Osi9 (Osiris 9): #1 -0.4
Atg1 (Autophagy-related 1): #1 -0.3; #2 -0.3
CG3544: #1 -0.3
Bfc (Booster for Crq): #1 -0.3
Bcs1 (Bcs1 chaperone): #1 -0.1
M6: #1 -0.3
lbk (lambik): #1 -0.3
CG7130: #1 -0.4
Taldo (Transaldolase): #1 -0.3
Bcat (Branched chain amino acid transaminase): #1 -0.2
tws (twins): #1 0.7; #2 0.3
Gr47b (Gustatory receptor 47b): #1 -0.2
CG11723: #1 -0.3
CG6149: #1 -0.2
pigs (pickled eggs): #1 -0.4; #2 -0.3; #3 -0.1
CG14763: #1 -0.3
tous (testes of unusual size): #1 -0.3
CG11635 + spaw: #1 -0.4
Papst2 (PAPS transporter 2): #1 -0.3
Bx42: #1 3.5
mrn (marionette): #1 -0.4
CG10005: #1 -0.1
CG7365: #1 -0.4
Cap-D2 (CAP-D2 condensin subunit): #1 -0.4
CG3397: #1 -0.4
CG8093: #1 -0.3
Dis3: #1 1.2
RpL23 (Ribosomal protein L23): #1 7.9
Acp26Ab (Accessory gland protein 26Ab): #1 -0.5
euc (eucalyptus): #1 -1.3
Cyp4d1 (Cytochrome P450 4d1): #1 -0.1; #2 -0.2
sphe (spheroide): #1 -0.2
CG3513: #1 -0.4
CG42331: #1 0.9; #2 -0.1

Reprinted from the listing, 5 entries:
z-score, replicate 1, by gene and reagent
CG11723: #1 -0.3
CG6149: #1 -0.2
pigs (pickled eggs): #1 -0.4; #2 -0.3; #3 -0.1
